# Source: patent US11841361B2, “Microfluidic proximal tubule kidney-on-chip” (EMULATE, INC., priority 2019, dated 2023)
# Test system: Kidney-Chip (Co-culture of Proximal tubular cells and Kidney endothelial cells)
# Assay: Gene expression (raw Ct, qPCR) in Kidney-Chip after nephrotoxic compounds
# Assay type: cell-based, human
# Details: Cisplatin 100 μM or Gentamicin 10 mM, 24 h, RNA lysate Day 8; for Raw Ct value 18s RNA: housekeeping gene
Compound,Raw Ct value CLU (Clusterin),Raw Ct value KIM1,Raw Ct value OAT1,Raw Ct value OAT3,Raw Ct value 18s RNA
N.N.[Cl][Pt][Cl] [Cisplatin],21.15,26.69,34.46,27.23,6.419
Gentamicin,18.6417,23.4566,33.92,35.65,5.525
